According to patent publication US4340539A, “Derivatives of 6-bromo penicillanic acid” (priority 1980, dated 1982):
Like-named read-outs stand apart in the source and are kept apart here.

Key:
[1] = Blood levels after oral administration to mice (Table 4); format: in vivo; conditions: mouse, 100 mg/kg, assay organism E. coli A-9675, read-out: Blood level
[2] = in vivo; set-up: species or system mice; conditions: mouse, blood, po, read-out: Blood level; for concentration at 0.5 h: 30 min; for concentration at 1 h: 60 min; for concentration at 2 h: 120 min
From the text: Compounds prepared in 5% Propylene Glycol & TweenCMC-H2 O.
Values in parentheses are 95% confidence limits.
Assay Organism: E. coli A9675 (pH = 6.6, 0.1% inoculum)

[3] = 25 mg/kg, Test 1, oral 25 mg/kg
[4] = 25 mg/kg, Test 3, oral 25 mg/kg
[5] = 50 mg/kg, Test 1, oral 50 mg/kg
[6] = 50 mg/kg, Test 3, oral 50 mg/kg
[7] = 100 mg/kg, Test 1, oral 100 mg/kg
[8] = 100 mg/kg, Test 3, oral 100 mg/kg

`CC1(CCl)C(C(=O)O)N2C(=O)CC2S1(=O)=O` (stereo not drawn) [BL-P2013, Potassium 2β-Chloromethyl-2α-methylpenam-3α-carboxylate Sulfone] gave a concentration at 1 h ([1]; 60 min) of 3900 ng/mL, a concentration at […] ([1]; 150 min) of 800 ng/mL and a concentration at […] ([2]; 25 mg/kg, Test 1, oral 25 mg/kg, 15 min) of 1300 ng/mL. For the same molecule, the concentration at 0.5 h [2, 3] was 1400 ng/mL, the concentration at 1 h [2, 3] was 1000 ng/mL and the concentration at […] ([2]; 25 mg/kg, Test 1, oral 25 mg/kg, 90 min) was less than 600 ng/mL. For the same molecule, the concentration at 2 h [2, 3] was less than 600 ng/mL, the concentration at […] ([2]; 25 mg/kg, Test 1, oral 25 mg/kg, 150 min) was less than 600 ng/mL and the concentration at […] ([2]; 25 mg/kg, Test 3, oral 25 mg/kg, 15 min) was 1400 ng/mL. For the same molecule, the concentration at 0.5 h [2, 4] was 2000 ng/mL, the concentration at 1 h [2, 4] was 1400 ng/mL and the concentration at […] ([2]; 25 mg/kg, Test 3, oral 25 mg/kg, 90 min) was 1200 ng/mL. It also gave a concentration at 2 h [2, 4] of less than 1200 ng/mL, a concentration at […] ([2]; 25 mg/kg, Test 3, oral 25 mg/kg, 150 min) of less than 1200 ng/mL and a concentration at […] ([2]; 50 mg/kg, Test 1, oral 50 mg/kg, 15 min) of 2200 ng/mL. The concentration at 0.5 h [2, 5] was 2600 ng/mL, the concentration at 1 h [2, 5] was 1900 ng/mL and the concentration at […] ([2]; 50 mg/kg, Test 1, oral 50 mg/kg, 90 min) was 1500 ng/mL. The concentration at 2 h [2, 5] was 1100 ng/mL, the concentration at […] ([2]; 50 mg/kg, Test 1, oral 50 mg/kg, 150 min) was 800 ng/mL and the concentration at […] ([2]; 50 mg/kg, Test 3, oral 50 mg/kg, 15 min) was 4600 ng/mL. For the same molecule, the concentration at 0.5 h [2, 6] was 5500 ng/mL, the concentration at 1 h [2, 6] was 3600 ng/mL and the concentration at […] ([2]; 50 mg/kg, Test 3, oral 50 mg/kg, 90 min) was 3100 ng/mL. The concentration at 2 h [2, 6] was 2000 ng/mL, the concentration at […] ([2]; 50 mg/kg, Test 3, oral 50 mg/kg, 150 min) was 1100 ng/mL and the concentration at […] ([2]; 100 mg/kg, Test 1, oral 100 mg/kg, 15 min) was 3400 ng/mL. It also gave a concentration at 0.5 h [2, 7] of 4500 ng/mL, a concentration at 1 h [2, 7] of 3900 ng/mL and a concentration at […] ([2]; 100 mg/kg, Test 1, oral 100 mg/kg, 90 min) of 3600 ng/mL. For the same molecule, the concentration at 2 h [2, 7] was 2700 ng/mL, the concentration at […] ([2]; 100 mg/kg, Test 1, oral 100 mg/kg, 150 min) was 2100 ng/mL and the concentration at […] ([2]; 100 mg/kg, Test 3, oral 100 mg/kg, 15 min) was 6800 ng/mL. It also gave a concentration at 0.5 h [2, 8] of 11500 ng/mL, a concentration at 1 h [2, 8] of 6400 ng/mL and a concentration at […] ([2]; 100 mg/kg, Test 3, oral 100 mg/kg, 90 min) of 4200 ng/mL. For the same molecule, the concentration at 2 h [2, 8] was 3300 ng/mL and the concentration at […] ([2]; 100 mg/kg, Test 3, oral 100 mg/kg, 150 min) was 2500 ng/mL.
